## Screening data, single-dose tests

Source: ChEMBL document CHEMBL3988442, “University of Dundee, Small-Polar-MMV Screening Library” (2021).

Mtb cholesterol medium: 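Whole-cell growth test on Mycobacterium tuberculosis, read after 4 days in a medium based on cholesterol and the lipid DPPC; the read-out is not stated. Tested at 50 µM. Direction is inferred from retests: higher values go with more growth inhibition. About 69,000 compounds were tested under these conditions; 0.54% (about 370) showed 50% or more at least once.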
Mtb glucose medium: 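Growth of Mycobacterium tuberculosis over 3 days (7H9 medium with glucose and tyloxapol); the read-out is not stated. Compounds at 50 µM. Direction is inferred from retests: higher values go with more growth inhibition. Size under these conditions: about 69,000 compounds, about 760 of them at 50% or above in at least one test.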

Values are the deposited “Percent Effect”, in %. How 0% and 100% were set is not recorded. Most values in the screen are low, and negative values occur. This is an unselected part of the compounds tested. Two or more numbers in one place are separate tests of the same structure; such repeats can differ widely.

- CCOCc1nc2c(c(NC(CC)c3ccncc3)n1)CCNCC2 (configuration not stated) : Mtb cholesterol medium: -10.64%; Mtb glucose medium: 13.36%
- N#Cc1cccc(N2CC3(CCN(C(=O)c4cccnc4)C3)CC2=O)c1.O=C(O)C(F)(F)F (configuration not stated) : Mtb cholesterol medium: -15.12%; Mtb glucose medium: 11.8%
- CC(C)n1cnnc1CN(C)CC1CCCNC1 (configuration not stated) : Mtb cholesterol medium: -12.43%; Mtb glucose medium: -5.684%
- COCCCNC(=O)Nc1cccc2ncccc12 : Mtb cholesterol medium: -8.368%; Mtb glucose medium: -33%
- O=C(NCc1cccnc1)c1nc2c(s1)CCCN2C(=O)C1CC1.O=C(O)C(F)(F)F : Mtb cholesterol medium: -8.097%; Mtb glucose medium: -16.32%
- CC(C)C(=O)NC1CCN(c2cccc(OC(F)(F)F)c2)C1=O (configuration not stated) : Mtb cholesterol medium: -6.877% and 1.633%; Mtb glucose medium: 0.7853%
- O=C(c1ccc(Br)cc1F)N1CCc2ccncc21 : Mtb cholesterol medium: -7.827%; Mtb glucose medium: -14.34%
- Cl.c1nc(CCC2CCCCN2)cc(N2CCCC2)n1 (configuration not stated) : Mtb cholesterol medium: -3.604%; Mtb glucose medium: -21.95%
- Cc1cc(C)cc(NC(=O)Cc2c(C)nc3c(c2C)c(=O)[nH]n3C)c1 : Mtb cholesterol medium: 5.964%; Mtb glucose medium: 19.94%
- CCC(C)(NCc1nc(C)c(C)o1)c1nccs1 (configuration not stated) : Mtb cholesterol medium: -22.01%; Mtb glucose medium: -5.486% and -0.1087%
- CN(C)C(=O)C1CN(c2ccncn2)CCN(C2CCOCC2)C1 (configuration not stated) : Mtb cholesterol medium: -25.35%; Mtb glucose medium: 13.25%
- CN(Cc1nc(-c2cccnc2)no1)C(=O)c1cccn1C : Mtb cholesterol medium: -5.073%; Mtb glucose medium: -31.06%
- O=C(O)C(F)(F)F.[H][C@]12CCCN(Cc3ccc(C)o3)[C@@]1([H])CN(C(C)=O)C2 : Mtb cholesterol medium: 5.463%; Mtb glucose medium: -16.83%
- [H][C@@]12CCCO[C@]1([H])[C@@H](OC)CN2S(=O)(=O)c1cn(C)cn1 : Mtb cholesterol medium: -19.29%; Mtb glucose medium: -17.2%
- Cn1cc(CCNC(=O)CCc2ccc3c(c2)OCO3)cn1 : Mtb cholesterol medium: -22.7%; Mtb glucose medium: -11.79%
- Cc1nn(C)c(N(C)C)c1CNC1CCOc2c(F)cccc21 (configuration not stated) : Mtb cholesterol medium: -1.64%; Mtb glucose medium: -31.49%
- CCc1nc(CN2CCN(CC(O)c3ccccc3)CC2)no1 (configuration not stated) : Mtb cholesterol medium: -22.06%; Mtb glucose medium: 9.362%
- O=C(O)C(F)(F)F.O=C1CCCC2(CCN(C(=O)c3ccccn3)CC2)N1 : Mtb cholesterol medium: 11.27%; Mtb glucose medium: 5.144%
- O=C(O)C(F)(F)F.O=C(O)C(F)(F)F.O=C(O)C(F)(F)F.c1ccc(CN2CCOC3(CCN(c4ncccn4)CC3)C2)nc1 : Mtb cholesterol medium: 11.23%; Mtb glucose medium: 2.256% and 14.77%
- O=C(NCC1CC1)c1cnc(-c2ccccc2)nc1 : Mtb cholesterol medium: 7.815%; Mtb glucose medium: 16.81% and 18.23%
- COc1cc(CNc2cnn(C(C)(C)C)c(=O)c2Cl)ccn1 : Mtb cholesterol medium: 9.888%; Mtb glucose medium: 27.73% and 7.639%
- O=C(NCCCC(=O)N1CCN(CC2CC2)c2ccccc21)C1CC1 : Mtb cholesterol medium: 7.715%; Mtb glucose medium: -3.585%
- CC(C)n1c(C2CCCN(Cc3ccnn3C)C2)nc2ccccc21 (configuration not stated) : Mtb cholesterol medium: -2.023%; Mtb glucose medium: 14.52%
- Cc1ccc(C(CC(=O)O)NC(=O)CCc2cccs2)cc1 (configuration not stated) : Mtb cholesterol medium: -16.96%; Mtb glucose medium: 12.85%
- COc1cc(CNc2cc(-c3nncn3C)ccn2)cc(OC)c1OC : Mtb cholesterol medium: 15.22%; Mtb glucose medium: 10.85%
- Cn1ccnc1CN1CCC2(CC(=O)N(c3ccccn3)C2)C1.O=C(O)C(F)(F)F.O=C(O)C(F)(F)F (configuration not stated) : Mtb cholesterol medium: 4.946% and 7.364%; Mtb glucose medium: 5.308%
- NC(=O)c1cccc(CC2CCN(C(=O)CO)C2)c1 (configuration not stated) : Mtb cholesterol medium: -10.32%; Mtb glucose medium: 4.057% and -5.456%
- CCc1nc(CN2CCCN(C(=O)C(C)n3ccnc3)CC2)cs1 (configuration not stated) : Mtb cholesterol medium: -7.258%; Mtb glucose medium: -2.249%
- COc1cnc(N2CCCC(c3ncc[nH]3)C2)nc1 (configuration not stated) : Mtb cholesterol medium: -9.521%; Mtb glucose medium: -5.073%

Repeated from the top, 3 entries:

{"smiles": "CCOCc1nc2c(c(NC(CC)c3ccncc3)n1)CCNCC2", "stereo": "configuration not stated", "Mtb cholesterol medium": -10.64, "Mtb glucose medium": 13.36}
{"smiles": "N#Cc1cccc(N2CC3(CCN(C(=O)c4cccnc4)C3)CC2=O)c1.O=C(O)C(F)(F)F", "stereo": "configuration not stated", "Mtb cholesterol medium": -15.12, "Mtb glucose medium": 11.8}
{"smiles": "CC(C)n1cnnc1CN(C)CC1CCCNC1", "stereo": "configuration not stated", "Mtb cholesterol medium": -12.43, "Mtb glucose medium": -5.684}